{"sequences": {"note": "By UniProt entry, the sequences of proteins in these tests, tags left out. Residues count along the entry.", "UniProt P02768, residues 25-609": "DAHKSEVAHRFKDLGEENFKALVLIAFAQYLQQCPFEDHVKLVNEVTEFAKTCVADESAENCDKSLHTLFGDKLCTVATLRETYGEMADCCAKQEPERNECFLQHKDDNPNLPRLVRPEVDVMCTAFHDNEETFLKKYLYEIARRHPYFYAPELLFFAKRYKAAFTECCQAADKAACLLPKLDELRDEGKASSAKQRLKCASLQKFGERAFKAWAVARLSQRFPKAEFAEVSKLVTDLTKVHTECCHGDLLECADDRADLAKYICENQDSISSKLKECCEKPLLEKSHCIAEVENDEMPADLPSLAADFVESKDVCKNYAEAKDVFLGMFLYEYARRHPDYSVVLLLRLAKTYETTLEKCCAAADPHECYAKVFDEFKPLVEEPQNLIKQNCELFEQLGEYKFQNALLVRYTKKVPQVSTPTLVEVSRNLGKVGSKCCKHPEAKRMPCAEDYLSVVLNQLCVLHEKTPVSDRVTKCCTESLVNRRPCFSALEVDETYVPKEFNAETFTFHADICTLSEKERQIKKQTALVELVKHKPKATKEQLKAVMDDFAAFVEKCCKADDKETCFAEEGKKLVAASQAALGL"}, "source": "patent US20130316376A1", "key": {"[1]": {"biological_target": "albumin from human blood plasma (human) (UniProt P02768)", "test": "films, low pH elution, non-reducing SDS-PAGE"}, "[2]": {"biological_target": "albumin from human blood plasma (human) (UniProt P02768)", "test": "fiber, low pH elution, non-reducing SDS-PAGE"}, "[3]": {"biological_target": "albumin from human blood plasma (human) (UniProt P02768)", "test": "films used once before and stored 29 days in PBS, low pH elution, non-reducing SDS-PAGE"}}, "note": "These are yes or no findings as the source states them, for the method shown.", "data": [{"binder": "Rep4CT (SEQ ID NO: 20) (protein) GPNSGQGGYGGLGQGGYGQGAGSSAAAAAAAAAAAAGGQGGQGQGGYGQGSGGSAAAAAAAAAAAAAAAGRGQGGYGQGSGGNAAAAAAAAAAAAAAAGQGGQGGYGRQSQGAGSAAAAAAAAAAAAAAGSGQGGYGGQGQGGYGQSSASASAAASAASTVANSVSRLSSPSAVSRVSSAVSSLVSNGQVNMAALPNIISNISSSVSASAPGASGCEVIVQALLEVITALVQIVSSSSVGYINPSAVNQITNVVANAMAQVMG", "values": [{"measurement": "binding", "setting": "[1]", "value": "no binding (tested: human blood plasma (1:5 dilution))"}, {"measurement": "binding", "setting": "[2]", "value": "no binding (tested: human blood plasma (1:5 dilution))"}, {"measurement": "binding", "setting": "[3]", "value": "no binding (tested: human blood plasma (1:5 dilution))"}]}]}
